Source: article PMC12607891, “A broadly conserved fungal chorismate mutase targets the plant shikimate pathway to regulate salicylic acid production and other secondary metabolites” (mBio, 2025)

Biological target: Sclerotinia sclerotiorum secreted chorismate mutase SsCM1 (Sclerotinia sclerotiorum) (UniProt A7F9N9)
Experiment: two-hybrid; Clontech yeast two-hybrid system; SsCM1 as bait (pGBKT7), AtCM1 or AtCM2 as prey (pGADT7); co-transformed into yeast strain HF7C; growth on SD-Trp-Leu-His and LacZ reporter; empty AD or BD vectors as negative controls

B1: Arabidopsis chorismate mutase AtCM1 (chloroplast-localized) (enzyme, UniProt P42738 1-340)
chain: MEASLLMRSSCCSSAIGGFFDHRRELSTSTPISTLLPLPSTKSSFSVRCSLPQPSKPRSGTSSVHAVMTLAGSLTGKKRVDESESLTLEGIRNSLIRQEDSIIFGLLERAKYCYNADTYDPTAFDMDGFNGSLVEYMVKGTEKLHAKVGRFKSPDEHPFFPDDLPEPMLPPLQYPKVLHFAADSININKKIWNMYFRDLVPRLVKKGDDGNYGSTAVCDAICLQCLSKRIHYGKFVAEAKFQASPEAYESAIKAQDKDALMDMLTFPTVEDAIKKRVEMKTRTYGQEVKVGMEEKEEEEEEGNESHVYKISPILVGDLYGDWIMPLTKEVQVEYLLRRLD
  binding: binds

B2: Arabidopsis chorismate mutase AtCM2 (cytosolic) (enzyme, UniProt Q9S7H4 1-265)
chain: MARVFESDSGSGCSNVLSLDLIRESLIRQEDTIVFSLIERAKFPLNSPAFEESRCLDSGSFSSLTEFFVRETEIIQAKVGRYEYPEENPFFLENIPHSVFPTHKYPSALHPKALSVNINKQIWDIYFKELLPLFVKPGDDGNYPSTAASDLACLQALSRRIHYGKFVAEVKFRDAPQDYEPAIRAQDREALMKLLTFEKVEEMVKKRVQKKAETFGQEVKFNSGYGDESKKKYKVDPLLASRIYGEWLIPLTKLVEVEYLLRRLD
  binding: binds

Results are given in words; binding and its absence hold for the method and conditions named. Binding calls can cover weak binding; strength is not graded here.
